{
  "source": "patent US11331282B2",
  "about": "“Ophthalmic composition containing clathrated antioxidant substance, and use thereof” (TK Health Research, Co. Ltd., priority 2017, dated 2022)",
  "assay": "Solubilization testing by filtration (colour of filtrate, 0.45 μm filter)",
  "type": "physicochemical",
  "conditions": "aqueous 0.45 μm filter",
  "note": "At least one read-out could not be matched to a standard name with certainty.",
  "data": [
    {"smiles": "CC1=C(/C=C/C(C)=C/C=C/C(C)=C/C=C/C=C(C)/C=C/C=C(C)/C=C/C2=C(C)C(=O)[C@@H](O)CC2(C)C)C(C)(C)C[C@H](O)C1=O", "note": "[astaxanthin]", "values": [
      {"measurement": "solubilization in aqueous solvent (remains in filtrate after filtration)", "value": "cannot be dissolved in an aqueous solvent"}
    ]}
  ]
}
